Measured values from the supplement of paper PMC12425257.
± gives the standard deviation of the averaged measurements. The list shows a part of the results.

Test system: Madurella mycetomatis MM55
Test: metabolic activity (growth) relative to DMSO growth control; higher = more fungal growth

Row | Structure (SMILES) | metabolic activity (1 µM) | metabolic activity (2 µM) | metabolic activity (10 µM)
1 | CCOc1nc(C(=O)NCc2ccc(S(C)(=O)=O)cc2)cc(N)c1C#N | 99.5 ± 21% | 99.9 ± 18% | 109 ± 7.4%
2 | COc1cc(Nc2nccc(-c3cnn4nc(OC)ccc34)n2)cc(C(F)(F)F)c1 | 119 ± 15% | 114 ± 36% | 109 ± 1.1%
3 | Nc1nc(-c2cccc(Cl)c2)c(-c2ccc3ncccc3n2)s1 | 92.5 ± 26% | 91.8 ± 10% | 76.6 ± 15%
4 | Cl.O=C(Nc1ccc(Oc2ccc3[nH]c(NC(=O)c4ccco4)nc3c2)cc1)Nc1cc(C(F)(F)F)ccc1F | 118 ± 24% | 111.35 ± 0.062% | 117 ± 8.9%
5 | Cc1nnc(-c2ccc3occ(-c4ccc(S(C)=O)cc4)c3c2)[nH]1 (centres undefined) | 88.1 ± 9.7% | 84.3 ± 3% | 114 ± 15%
6 | C[C@H]1CC[C@@H](C(=O)Nc2ccccc2)CN1c1cc(-c2ccc3c(N)n[nH]c3c2)nc(N)n1 | 85.9 ± 4.6% | 104 ± 22% | 106 ± 25%
7 | Cn1nc(N)c2c(-c3ccc(NC(=O)Nc4cccc(Cl)c4)cc3)cncc21 | 104 ± 12% | 70.1 ± 5.7% | 127 ± 14%
8 | COc1cc(-c2ccc3c(N)n[nH]c3c2)ccn1 | 83.4 ± 3.4% | 83.7 ± 17% | 81.6 ± 2.5%
9 | CC(C)Nc1ncnc2cc(OCc3cccc(S(C)(=N)=O)c3)c(Br)cc12 (centres undefined) | 117 ± 17% | 74.5 ± 4.2% | 108 ± 1.1%
10 | O=C(O)c1cc2c(-c3cccc(-c4ccccc4)c3)cncc2s1 | 107 ± 18% | 90.8 ± 4.9% | 111 ± 28%
11 | COc1cc2ncnc(Nc3ccc(F)c(Cl)c3)c2cc1O[C@H]1CC[C@H](N)CC1 | 83.2 ± 19% | 89.8 ± 15% | 99.8 ± 13%
12 | COc1cc2ncn(-c3cc(O[C@H](C)c4ccccc4Cl)c(C(N)=O)s3)c2cc1OC | 93.5 ± 14% | 87.5 ± 19% | 55.9 ± 44%
13 | Nc1ncnc2occ(-c3ccc(NC(=O)Nc4cc(C(F)(F)F)ccc4F)cc3)c12 | 91.3 ± 23% | 105 ± 37% | 55.7 ± 14%
14 | Cl.O=C(Nc1ccc(Oc2ccc3[nH]c(NC(=O)c4ccccc4)nc3c2)cc1)Nc1cc(C(F)(F)F)ccc1F | 92.8 ± 5.7% | 100 ± 19% | 110 ± 27%
15 | Cc1ccc2c(-c3ccnc(Nc4ccc5c(c4)OCCO5)n3)c(-c3ccc(C(F)(F)F)cc3)nn2n1 | 96.8 ± 15% | 83.8 ± 29% | 99 ± 26%
16 | Cn1ncc2cc(-c3cnc(N)c(Cl)c3N3CCC4(CCNC4=O)CC3)ccc21 | 100 ± 20% | 123 ± 10% | 94.1 ± 20%
17 | CNc1nc(-c2ccc3c(N)n[nH]c3c2)cc(N2C[C@@H](C(=O)Nc3ccccc3)CC[C@H]2C)n1 | 88.7 ± 18% | 90 ± 1.4% | 69.2 ± 0.74%
18 | COc1ccc2cc(-c3c(-c4ccncc4)nc(-c4ccc(S(C)(=O)=O)cc4C)n3C)ccc2c1 | 99.6 ± 33% | 83.9 ± 2.9% | 91.5 ± 16%
19 | Nc1nc(-c2ccc3c(N)n[nH]c3c2)cc(N2CCC[C@@H](C(=O)Nc3ccccc3)C2)n1 | 109 ± 14% | 103 ± 16% | 101 ± 22%
20 | Cc1cn(-c2cc(NC(=O)c3ccc4c(c3)CN(c3cncnc3)C[C@@H]4C)cc(C(F)(F)F)c2)cn1 | 124 ± 28% | 94.7 ± 14% | 71.4 ± 47%
21 | Cc1c(Cn2c(C)c(C)n3c(=O)cc(N4CCOCC4)nc23)cccc1C(F)(F)F | 84.7 ± 10% | 88.8 ± 10% | 117 ± 18%
22 | NC(=O)c1c(Oc2ccc(F)c(NS(N)(=O)=O)c2)cc(F)c(F)c1Nc1ccc(I)cc1F | 92.6 ± 1.3% | 69.2 ± 3.1% | 110 ± 16%
23 | CCCCN(Cc1ccccc1)C(=O)c1ccc(S(=O)(=O)Nc2ccccc2)cc1 | 98.5 ± 36% | 102 ± 2.8% | 91.75 ± 0.74%

Row | Structure (SMILES) | metabolic activity (1 µM) | metabolic activity (2 µM) | metabolic activity (10 µM)
24 | CCc1c(-c2nonc2N)nc2c(C#Cc3ccccc3)ccc(N3C[C@H](O)[C@@H](O)C3)n12 | 94.2 ± 16% | 100 ± 30% | 115 ± 5.1%
25 | CC(=O)O.Nc1ncc2ccn(-c3ccc4[nH]ncc4c3)c2n1 | 124 ± 34% | 114 ± 37% | 94.71 ± 0.17%
26 | O=C(Nc1cccc(-c2nn3ncccc3c2-c2ccnc(Nc3cccnc3)n2)c1)c1c(F)cccc1F | 87.9 ± 6.8% | 76.82 ± 0.25% | 97.3 ± 9.8%
27 | COc1cccc(-n2ncc3c(N/N=C/c4ccncc4)ncnc32)c1 | 81.9 ± 9.8% | 65.4 ± 16% | 93.6 ± 42%
28 | CCc1c(-c2ccc(C(C)(C)O)cc2)[nH]c2nc(C)c3cncn3c12 | 79.8 ± 6.3% | 101 ± 30% | 88.7 ± 21%
29 | CN1CCN(c2ccc(Nc3ncc4c(=O)n(-c5c(Cl)cccc5Cl)nc(-c5cccnc5Cl)c4n3)cc2)CC1.O=C(O)C(F)(F)F.O=C(O)C(F)(F)F | 103 ± 14% | 95.9 ± 32% | 124 ± 8.9%
30 | O=CN1CCN(Cc2ccc3c(c2)Cc2c(-c4csc(C#CCOc5ccccc5)c4)n[nH]c2-3)CC1 | 118 ± 8.4% | 116 ± 4% | 101 ± 12%
31 | CC1=C(C(=O)Nc2ccc3[nH]ncc3c2)C(c2ccc(Cl)c(Cl)c2)CC(=O)N1 (centres undefined) | 102 ± 16% | 106 ± 12% | 98.4 ± 18%
32 | CCOc1ccc2c(-c3ccnc(Nc4cccc(OC(F)(F)F)c4)n3)cnn2n1 | 96.9 ± 24% | 101 ± 46% | 96.4 ± 14%
33 | Cl.O=S1CCN(Cc2ccc(-c3ccc4ncnc(Nc5ccc(OCc6ccccc6)c(F)c5)c4c3)o2)CC1 | 93.8 ± 20% | 118 ± 20% | 91.6 ± 20%
34 | Nc1n[nH]c2cc(-c3ccc4c(c3)OCCO4)ccc12 | 92.2 ± 34% | 85.6 ± 3.3% | 109 ± 5.8%
35 | CN1CCN(Cc2ccc(-c3n[nH]c4c3Cc3ccccc3-4)cc2)CC1 | 96.2 ± 11% | 104 ± 39% | 90.8 ± 18%
36 | Nc1n[nH]c2cc(-c3cnn(Cc4ccccc4)c3)ccc12 | 98.1 ± 46% | 107 ± 12% | 92 ± 10%
37 | O=C(NOC[C@H](O)CO)c1ccc(F)c(F)c1Nc1ccc(I)cc1F | 91.6 ± 1% | 85.1 ± 4.6% | 90.8 ± 38%
38 | C#Cc1cccc(Nc2ncnc3cc(OC)c(OC4CCN(C)CC4)cc23)c1 | 85.2 ± 1.1% | 98 ± 29% | 85.3 ± 3.8%
39 | COc1ncccc1-c1cnn2ccc(N3CCN(C(=O)CN(C)C)CC3)nc12 | 74.7 ± 2.6% | 78.9 ± 3.4% | 113 ± 2.6%
40 | COc1cccc(-c2cc3ncnc(SCC(=O)O)c3s2)c1 | 106 ± 16% | 94.7 ± 23% | 95.9 ± 18%
41 | Cn1cc(-c2ccc3c(c2)CCN3C(=O)Cc2cccc(C(F)(F)F)c2)c2c(N)ncnc21 | 93.1 ± 26% | 94.8 ± 7.2% | 87.2 ± 24%
42 | C[C@@H]1CCN(C(=O)CO)C[C@@H]1N(C)c1ncnc2[nH]ccc12 | 118 ± 15% | 123 ± 31% | 97.4 ± 25%
43 | Cc1ccc(NC(=O)Nc2ccccc2F)cc1-c1ccc(C(=O)Nc2ccncc2)cc1 | 99.8 ± 35% | 94.7 ± 1.4% | 108 ± 4.4%
44 | O=c1[nH]c2cc(Nc3ccc(F)cc3F)ccc2n1CC1CCCCC1 | 92 ± 34% | 74.4 ± 24% | 73.4 ± 18%
45 | COc1cc2ncnc(Nc3cccc(Cl)c3F)c2cc1O[C@H]1CC[C@@]2(CC1)NCCNC2=O | 93.6 ± 7.9% | 105 ± 25% | 104 ± 7.8%
46 | COc1cc2ncnc(Nc3ccc4c(cnn4Cc4ccccc4)c3)c2cc1OC.Cl | 89.7 ± 34% | 97.9 ± 14% | 89.5 ± 4.2%

Row | Structure (SMILES) | metabolic activity (1 µM) | metabolic activity (2 µM) | metabolic activity (10 µM)
47 | O=C(NCCO)c1cccc(-c2cc(Nc3ccc(OC(F)(F)F)cc3)ncn2)c1 | 107 ± 37% | 113 ± 11% | 131.8 ± 0.88%
48 | COc1cc(OC)c(NC(=O)Nc2cnc(C#N)cn2)cc1Cl | 107 ± 27% | 104 ± 18% | 112 ± 32%
49 | CCCNC(=O)c1ccc(Nc2nc(NCC(F)(F)F)c3occc3n2)cc1 | 103 ± 17% | 97.5 ± 22% | 111 ± 6.6%
50 | COC(=O)C(NC(=O)NC1CCN(c2ccnc(Nc3ccc(F)cc3)n2)C1)c1ccccc1 (centres undefined) | 108 ± 5.1% | 90.7 ± 11% | 109 ± 15%
51 | Nc1ncnc2[nH]c(-c3ccccc3)nc12 | 89.2 ± 20% | 96.9 ± 36% | 107 ± 7.2%
52 | Cc1cc(-c2ccc3c(c2)CC[C@@H](N[C@@H](C)c2ccccc2)C3)cnc1N | 93.1 ± 28% | 111 ± 4.3% | 145 ± 23%
53 | COc1cc(C)c(N(C)C(=O)CN(C)C)cc1Nc1nc(Nc2cccc(F)c2C(N)=O)c2cc[nH]c2n1 | 111 ± 8.8% | 73 ± 3.5% | 93.3 ± 19%
54 | COc1ccc(-c2cc3c(C)nc(N)nc3n([C@H]3CC[C@H](OCCO)CC3)c2=O)cn1 | 97.5 ± 14% | 84.5 ± 25% | 108 ± 25%
55 | CNc1nc(Nc2ccc(C(=O)N3CCOCC3)cc2OC)ncc1Cl | 85.4 ± 18% | 73.5 ± 0.92% | 119 ± 3.6%
56 | Cn1ccc2ncnc(Oc3ccc(NC(=O)Nc4ccccc4)cc3)c21 | 102 ± 27% | 113 ± 33% | 105 ± 6.6%
57 | CN(C)C/C=C/C(=O)Nc1ccc(C(=O)N2CCC[C@@H](Nc3ncc(Cl)c(-c4c[nH]c5ccccc45)n3)C2)cc1 | 99.9 ± 25% | 66.9 ± 8.1% | 93 ± 8.8%
58 | Cc1c(Cn2ccn3c(=O)nc(N4CCOCC4)cc23)cccc1C(F)(F)F | 81.6 ± 3.2% | 99.7 ± 34% | 108 ± 15%
59 | C[C@@H](Oc1cc(-n2cnc3ccc(CN4CCN(C)CC4)cc32)sc1C(N)=O)c1ccccc1C(F)(F)F | 86.6 ± 6.2% | 64.3 ± 4% | 105 ± 3.7%
60 | CC(=O)c1c(C)c2cnc(Nc3ccc(N4CCNCC4)cn3)nc2n(C2CCCC2)c1=O | 103 ± 24% | 93.4 ± 24% | 111 ± 15%
61 | O=C(Nc1n[nH]c2cc(-c3cccc(F)c3F)ccc12)C1CC1 | 78.3 ± 9.2% | 83.8 ± 9.3% | 111 ± 11%
62 | CCOc1nc(C(=O)NCc2ccccc2S(N)(=O)=O)cc(N)c1C#N | 106 ± 3.9% | 71.98 ± 0.41% | 119 ± 12%
63 | CCCS(=O)(=O)Nc1ccc(F)c(-n2cc(-c3cncc(OC)c3)nn2)c1F | 92.3 ± 42% | 78.6 ± 14% | 99.1 ± 13%
64 | COc1ccc(COc2ccc(Cc3cnc(N)nc3N)cc2OC)cc1 | 89.4 ± 20% | 74.4 ± 5.8% | 78.5 ± 35%
65 | NCC1CNC(=O)c2cc3ccc(C(=O)Nc4cccnc4)cc3n2C1 (centres undefined) | 107 ± 36% | 98.8 ± 22% | 105 ± 2.1%
66 | CNc1nc(-c2ccc3c(N)n[nH]c3c2)cc(N2C[C@@H](C(=O)NC3CCCCC3)CC[C@H]2C)n1 | 98.3 ± 22% | 72.8 ± 5.5% | 76.4 ± 6.9%
67 | Cn1cc(-c2ccc3[nH]nc(N)c3c2)cn1 | 91.4 ± 9.2% | 106 ± 12% | 108 ± 17%
68 | Cc1ccc(C(=O)Nc2ccc(Nc3ccnc4cc(-c5ccccn5)ccc34)cc2O)cc1 | 81.4 ± 17% | 71 ± 10% | 84.54 ± 0.29%

Part of the list above, comma-delimited:
Row,Structure (SMILES),metabolic activity (1 µM),metabolic activity (2 µM),metabolic activity (10 µM)
50,COC(=O)C(NC(=O)NC1CCN(c2ccnc(Nc3ccc(F)cc3)n2)C1)c1ccccc1 (centres undefined),108 ± 5.1%,90.7 ± 11%,109 ± 15%
51,Nc1ncnc2[nH]c(-c3ccccc3)nc12,89.2 ± 20%,96.9 ± 36%,107 ± 7.2%
52,Cc1cc(-c2ccc3c(c2)CC[C@@H](N[C@@H](C)c2ccccc2)C3)cnc1N,93.1 ± 28%,111 ± 4.3%,145 ± 23%
53,COc1cc(C)c(N(C)C(=O)CN(C)C)cc1Nc1nc(Nc2cccc(F)c2C(N)=O)c2cc[nH]c2n1,111 ± 8.8%,73 ± 3.5%,93.3 ± 19%
54,COc1ccc(-c2cc3c(C)nc(N)nc3n([C@H]3CC[C@H](OCCO)CC3)c2=O)cn1,97.5 ± 14%,84.5 ± 25%,108 ± 25%
55,CNc1nc(Nc2ccc(C(=O)N3CCOCC3)cc2OC)ncc1Cl,85.4 ± 18%,73.5 ± 0.92%,119 ± 3.6%
56,Cn1ccc2ncnc(Oc3ccc(NC(=O)Nc4ccccc4)cc3)c21,102 ± 27%,113 ± 33%,105 ± 6.6%
57,CN(C)C/C=C/C(=O)Nc1ccc(C(=O)N2CCC[C@@H](Nc3ncc(Cl)c(-c4c[nH]c5ccccc45)n3)C2)cc1,99.9 ± 25%,66.9 ± 8.1%,93 ± 8.8%
58,Cc1c(Cn2ccn3c(=O)nc(N4CCOCC4)cc23)cccc1C(F)(F)F,81.6 ± 3.2%,99.7 ± 34%,108 ± 15%
59,C[C@@H](Oc1cc(-n2cnc3ccc(CN4CCN(C)CC4)cc32)sc1C(N)=O)c1ccccc1C(F)(F)F,86.6 ± 6.2%,64.3 ± 4%,105 ± 3.7%
60,CC(=O)c1c(C)c2cnc(Nc3ccc(N4CCNCC4)cn3)nc2n(C2CCCC2)c1=O,103 ± 24%,93.4 ± 24%,111 ± 15%
61,O=C(Nc1n[nH]c2cc(-c3cccc(F)c3F)ccc12)C1CC1,78.3 ± 9.2%,83.8 ± 9.3%,111 ± 11%
62,CCOc1nc(C(=O)NCc2ccccc2S(N)(=O)=O)cc(N)c1C#N,106 ± 3.9%,71.98 ± 0.41%,119 ± 12%
